Measurements taken from publication PMC4200255.
Results are given in words; binding and its absence hold for the method and conditions named. For part of these data: In cells and extracts the contact can be indirect. Some binding calls cover weakened binding; strength is not graded here. For part of these data: Where a sequence is shown, tags or fusion partners need not be part of it.

By UniProt entry, the sequences of proteins in these tests, tags left out.
UniProt Q9UNE7: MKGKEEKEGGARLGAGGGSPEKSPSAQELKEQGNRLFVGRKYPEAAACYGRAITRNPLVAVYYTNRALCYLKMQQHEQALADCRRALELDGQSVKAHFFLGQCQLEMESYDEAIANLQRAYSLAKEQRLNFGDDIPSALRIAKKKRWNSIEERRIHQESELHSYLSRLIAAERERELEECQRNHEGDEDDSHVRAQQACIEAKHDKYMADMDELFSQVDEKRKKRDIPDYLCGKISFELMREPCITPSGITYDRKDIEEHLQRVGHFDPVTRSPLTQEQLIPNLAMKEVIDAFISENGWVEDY
UniProt P11142: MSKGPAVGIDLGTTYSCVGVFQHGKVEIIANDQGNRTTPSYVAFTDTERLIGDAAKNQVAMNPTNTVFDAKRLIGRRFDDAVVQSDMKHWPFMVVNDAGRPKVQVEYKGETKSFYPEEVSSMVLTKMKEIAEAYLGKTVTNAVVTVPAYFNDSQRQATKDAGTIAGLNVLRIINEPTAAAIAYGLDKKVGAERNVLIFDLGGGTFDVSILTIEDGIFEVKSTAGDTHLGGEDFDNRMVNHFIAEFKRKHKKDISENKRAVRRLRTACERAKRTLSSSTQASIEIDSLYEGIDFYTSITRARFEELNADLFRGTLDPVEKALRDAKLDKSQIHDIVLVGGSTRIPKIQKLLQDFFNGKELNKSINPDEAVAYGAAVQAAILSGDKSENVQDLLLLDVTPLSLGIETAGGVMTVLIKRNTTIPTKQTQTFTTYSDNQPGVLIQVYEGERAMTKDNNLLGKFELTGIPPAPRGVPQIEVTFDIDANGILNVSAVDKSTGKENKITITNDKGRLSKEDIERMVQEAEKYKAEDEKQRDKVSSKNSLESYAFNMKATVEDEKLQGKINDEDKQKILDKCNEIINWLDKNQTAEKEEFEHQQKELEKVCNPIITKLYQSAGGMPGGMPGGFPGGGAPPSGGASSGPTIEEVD
UniProt P08238: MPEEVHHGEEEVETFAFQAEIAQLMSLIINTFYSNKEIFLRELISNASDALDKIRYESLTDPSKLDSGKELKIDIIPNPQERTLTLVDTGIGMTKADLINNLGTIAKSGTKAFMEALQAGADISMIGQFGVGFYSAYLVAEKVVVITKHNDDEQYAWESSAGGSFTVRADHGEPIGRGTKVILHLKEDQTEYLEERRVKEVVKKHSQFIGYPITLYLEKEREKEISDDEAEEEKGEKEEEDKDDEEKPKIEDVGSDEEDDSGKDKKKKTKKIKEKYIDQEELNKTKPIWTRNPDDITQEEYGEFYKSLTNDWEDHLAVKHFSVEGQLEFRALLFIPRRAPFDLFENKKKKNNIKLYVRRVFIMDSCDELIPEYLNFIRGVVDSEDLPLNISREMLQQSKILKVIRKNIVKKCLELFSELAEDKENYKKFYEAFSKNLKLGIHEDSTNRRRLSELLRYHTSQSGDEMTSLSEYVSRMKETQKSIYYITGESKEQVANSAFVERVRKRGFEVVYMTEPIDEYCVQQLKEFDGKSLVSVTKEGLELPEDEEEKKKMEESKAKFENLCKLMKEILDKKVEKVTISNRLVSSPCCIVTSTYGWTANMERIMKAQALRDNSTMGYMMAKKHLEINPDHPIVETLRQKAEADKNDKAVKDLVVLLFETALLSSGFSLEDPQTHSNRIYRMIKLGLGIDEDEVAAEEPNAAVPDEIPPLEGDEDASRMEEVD
UniProt P0DMV8: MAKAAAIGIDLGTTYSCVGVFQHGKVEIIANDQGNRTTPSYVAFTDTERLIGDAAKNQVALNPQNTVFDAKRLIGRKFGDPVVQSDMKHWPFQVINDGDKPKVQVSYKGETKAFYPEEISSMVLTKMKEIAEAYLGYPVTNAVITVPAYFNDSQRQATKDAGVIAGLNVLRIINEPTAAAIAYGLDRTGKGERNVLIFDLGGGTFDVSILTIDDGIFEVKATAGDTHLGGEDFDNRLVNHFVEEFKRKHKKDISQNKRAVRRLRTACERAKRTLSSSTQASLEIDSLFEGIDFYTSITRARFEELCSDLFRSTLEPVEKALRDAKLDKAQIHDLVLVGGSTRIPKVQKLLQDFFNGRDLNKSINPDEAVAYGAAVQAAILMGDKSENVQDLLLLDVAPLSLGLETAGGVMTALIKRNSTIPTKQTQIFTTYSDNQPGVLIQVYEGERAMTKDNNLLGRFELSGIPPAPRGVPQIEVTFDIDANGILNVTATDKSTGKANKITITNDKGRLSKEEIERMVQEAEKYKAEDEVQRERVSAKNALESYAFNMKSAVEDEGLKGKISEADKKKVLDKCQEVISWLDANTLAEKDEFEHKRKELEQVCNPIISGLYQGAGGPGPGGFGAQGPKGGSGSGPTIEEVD

T1: GST-RLIIT (GST protein that carried only the five residues 596RLIIT600 of SERT) (human)
T1 sequence: RLIIT


Experiments:
[1] = biological target: YFP-tagged SERT-P601A/G602A (human) (UniProt P31645); assay: co-IP; detergent lysates of HEK293 cells stably expressing YFP-tagged SERT or mutants, anti-GFP antibody and protein A-Sepharose, blots for HSPs and co-chaperones; also after 24 h noribogaine (10 μM), pifithrin-μ (5 μM), 17-DMAG (2 μM) or combinations
[2] = biological target: YFP-tagged SERT-R607A/I608A (human) (UniProt P31645); assay: as above
[3] = biological target: YFP-tagged SERT-F604Q (human) (UniProt P31645); assay: as above
[4] = biological target: T1, GST-RLIIT (GST protein that carried only the five residues 596RLIIT600 of SERT) (human); assay: pull-down; 10 μg GST fusion protein on glutathione-Sepharose, HEK293 cell lysate (0.15 ml, ~2 x 10^6 cells/sample; 1% Nonidet P-40 lysis buffer), 60 min at room temperature; immunoblot for HSP70-1A; only the target purified
[5] = biological target: T1, GST-RLIIT (GST protein that carried only the five residues 596RLIIT600 of SERT) (human); assay: pull-down; 10 μg GST fusion protein on glutathione-Sepharose, 2 μg recombinant HSP70 in 0.15 ml TBST, 60 min at room temperature; immunoblot for HSP70-1A; both purified

Row | binding [1] | binding [2] | Molecule | further results
1 | binds | binds | C terminus of HSP70-interacting protein (CHIP), E3-ligase, endogenous, HEK293 (from UniProt Q9UNE7 1-303) | –
2 | binds | – | HSC70 (endogenous, HEK293) (from UniProt P11142 1-646) | –
3 | binds | binds | HSC70-HSP90-organizing protein (HOP), endogenous, HEK293 (from UniProt P31948 1-543) | –
4 | binds | binds | HSP90β (endogenous, HEK293) (from UniProt P08238 1-724) | binding [3]: binds
5 | – | – | endogenous HSP70-1A of HEK293 cells (from UniProt P0DMV8 1-641) | binding [4]: binds
6 | – | – | recombinant purified protein HSP70-1A (from UniProt P0DMV8 1-641) | binding [5]: binds
7 | binds | binds | p23/HSP90 co-chaperone (endogenous, HEK293) (protein, UniProt Q15185 1-160) MQPASAKWYDRRDYVFIEFCVEDSKDVNVNFEKSKLTFSCLGGSDNFKHLNEIDLFHCIDPNDSKHKRTDRSILCCLRKGESGQSWPRLTKERAKLNWLSVDFNNWKDWEDDSDEDMSNFDRFSEMMNNMGGDEDVDLPEVDGADDDSQDSDDEKMPDLE | –
